The source of these data is patent US20140357549A1 (UNIVERSITY OF PITTSBURGH OF THE COMMONWEALTH SYSTEM OF …, published 2014).

Experiment [1] deals with Nox1-YFP (UniProt Q9Y5S8). The experiment in a line: spectroscopy (ICCS) competition against rhodamine-labeled NoxA1ds.
Experiment [2] has as its target T1, Nox1 (UniProt Q9Y5S8 1-564, limits assumed).
T1 sequence (looked up): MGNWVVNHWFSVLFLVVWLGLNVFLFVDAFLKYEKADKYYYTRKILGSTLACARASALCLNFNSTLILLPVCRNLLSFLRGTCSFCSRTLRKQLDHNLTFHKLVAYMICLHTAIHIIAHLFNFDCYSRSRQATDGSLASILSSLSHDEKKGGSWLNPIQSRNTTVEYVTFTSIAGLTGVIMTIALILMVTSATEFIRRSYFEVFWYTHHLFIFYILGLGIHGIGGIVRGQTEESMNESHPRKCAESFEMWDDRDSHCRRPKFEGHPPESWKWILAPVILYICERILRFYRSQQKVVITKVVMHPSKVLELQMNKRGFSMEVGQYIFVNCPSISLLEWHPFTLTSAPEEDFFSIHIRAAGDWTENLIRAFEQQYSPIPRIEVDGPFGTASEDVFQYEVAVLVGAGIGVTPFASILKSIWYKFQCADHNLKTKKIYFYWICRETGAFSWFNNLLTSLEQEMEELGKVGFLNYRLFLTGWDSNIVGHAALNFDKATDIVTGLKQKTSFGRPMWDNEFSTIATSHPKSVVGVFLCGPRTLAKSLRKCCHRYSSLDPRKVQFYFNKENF
Nature of the experiment: heading of Example 7 (ELISA, ICCS and FRET).

In experiment [3] the target is Nox1-YFP (UniProt Q9Y5S8). The experiment in a line: ICCS competition against R-NoxA1ds on Nox1-YFP.
Experiment [4] addresses T1, Nox1. The experiment in a line: ELISA: biotin peptide on neutravidin plates, cell membranes added, Nox1 detected by rabbit anti-Nox1 antibody and FITC secondary antibody. A general note: ELISA stands for enzyme-linked immunosorbent assay.

Results are given in words; binding and its absence hold for the method and conditions named. Some entries that bind do so weakly or less than the wild type. For some of these results: Where a sequence is shown, tags or fusion partners need not be part of it.

B1: NoxA1ds (peptide)
peptide: EPVDALGKAKV
modifications: C-terminal amide ([CONH2])
Turning to B1, the binding entry with Nox1-YFP [1], with Nox1 [2] and in the experiment with Nox1-YFP [3] was “binds” in each case.

B2: biotin-tagged NoxA1ds (peptide)
peptide: EPVDALGKAKV
modifications: biotin tag (position not given); C-terminal amide as printed for NoxA1ds
For B2, the binding entry with Nox1 [4] is given as “binds”.
